Screen size: about 190,000 compounds; about 110 (0.058%) were called active. The inconclusive results got no clear call from the source; some entries with a clear call stand among them for comparison.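 The calls were made as follows: active = fluorescent GTP binding to Rab7 beads changed by at least 20 points from the 100% baseline, either direction, mostly lower; inconclusive = compound itself probably fluorescent, or too few beads counted; inactive = the rest.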
Test system: Rab7 GTPase wild type (dog), Bodipy-FL-GTP binding
Test: modulators of GTP binding to Rab7, primary screen, biochemical, wildtype, multiplex bead flow cytometry (AID 758);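 also: median green fluorescence of bound Bodipy-FL-GTP per Rab7 bead population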
Details: GST-Rab7 beads, fluorescent GTP binding, at 10 µM, actives lie on both sides, untreated = 100%, excess cold GTP = 0%

SMILES	GTP binding activity (percent of control)
Cc1ccnc(N2C(=O)OC(C)(C)C2(C)O)c1 (centres undefined)	inconclusive: 104%
O=C(O)COc1ccc(Br)cc1/C=C1/SC(=O)N(CC(=O)N2CCCC2)C1=O	inconclusive: 101%
CC1=NNC(=O)C1CCC(=O)N/N=C(/C)c1ccc([N+](=O)[O-])cc1 (centres undefined)	inconclusive: 100%
O=C1NC(=S)N/C1=C/c1cc([N+](=O)[O-])ccc1O	inconclusive: 81%
COC(=O)c1ccc2nc(Nc3nc4c(F)cc(F)cc4s3)sc2c1	inactive: 85%
COc1cc2[nH]c(=S)nc(Nc3ccc(NC(C)=O)cc3)c2cc1OC	inconclusive: 83%
Nc1ccc(-c2cn3cccnc3n2)cc1	inactive: 90%
CC(C)N(C(=O)CSc1nnc(Cc2csc(Nc3ccccc3)n2)o1)C(C)C	inactive: 96%
CCOC(=O)c1ccc(N2C(=O)CC(N3CCN(C(=O)c4ccccc4)CC3)C2=O)cc1 (centres undefined)	inactive: 97%
O=c1oc2ccc3ccccc3c2cc1-c1nnc(-c2ccccc2)o1	inconclusive: 95%
CCCCCC1CCC(c2nnc(SCC(C)=O)o2)CC1 (centres undefined)	inactive: 104%
N#C/C(=N\Nc1ccccc1[N+](=O)[O-])C(=N)N1CCCCC1	inconclusive: 96%
O=C(NCCCN1CCCCCC1)c1ccc(N2CCCC2=O)cc1	inconclusive: 104%
Cc1c(Cl)cn2c(=O)cc(CN(C)Cc3nc4ccccc4c(=O)[nH]3)nc2c1Cl	inactive: 98%
Cc1nc2ccc(NC(=O)COc3ccccc3)cc2s1	inconclusive: 358%
Cc1cc(C)n(C(=O)CNC(=O)c2ccc3c(c2)OCCO3)n1	active: 20%
CC(C)CNS(=O)(=O)c1ccc(CCC(=O)O)cc1	inconclusive: 93%
CCN(CC)c1ccc(CNCc2cccs2)cc1	inconclusive: 107%
CC(=O)Nc1ccc(S(=O)(=O)Nc2nc3ccccc3nc2Nc2ccccc2)cc1	inconclusive: 95%
CC1=C/C(=N\Nc2ccccc2[N+](=O)[O-])CC(C)(C)C1	inactive: 96%
CCCCCOC(=O)c1ccccc1C(=O)O	inconclusive: 126%
CCN(CC)S(=O)(=O)c1ccc(C(=O)Oc2cc(C)[nH]c(=O)c2[N+](=O)[O-])cc1	inactive: 104%
Cc1cc(N2CCOCC2)n2cc(-c3ccccc3)nc2n1	inconclusive: 88%
CCOc1ccc2c(c1)c(N=Nc1cccc(C(=O)O)c1)c(O)n2C	inactive: 98%

In the list so far, these have an NH in an aromatic ring:
SMILES	GTP binding activity (percent of control)
COc1cc2[nH]c(=S)nc(Nc3ccc(NC(C)=O)cc3)c2cc1OC	inconclusive: 83%
Cc1c(Cl)cn2c(=O)cc(CN(C)Cc3nc4ccccc4c(=O)[nH]3)nc2c1Cl	inactive: 98%
CCN(CC)S(=O)(=O)c1ccc(C(=O)Oc2cc(C)[nH]c(=O)c2[N+](=O)[O-])cc1	inactive: 104%

The list continues:

SMILES	GTP binding activity (percent of control)
Cc1cc(CN(C)Cc2c(C(=O)N3CCCCCCC3)nc3ccc(Cl)cn23)n[nH]1	inactive: 104%
COCCOC(=O)C1=C(C)OC(N)=C(C#N)C1c1cc2cccc(C)c2nc1Cl (centres undefined)	inconclusive: 94%
C=CCn1c(CNc2ccc(C)cc2)nnc1SCC(=O)N/N=C/c1ccc(O)cc1O	inconclusive: 90%
S=C(NC1CCCCC1)N1CCN(Cc2ccccc2Cl)CC1	inactive: 95%
O=C(Nc1sc2c(c1C(=O)O)CCCCC2)c1ccccc1	inactive: 89%
COC(=O)CSc1nc2cc(Cl)ccc2c(=O)n1C1CCCC1	inactive: 90%
CC(CCc1ccccc1)NC(=O)CN1CCSc2ccccc21 (centres undefined)	inactive: 97%
S=C(c1ccc2c(c1)OCO2)N1CCCCC1	inconclusive: 106%
Cc1cc(C(=O)COC(=O)c2nc3nccc(C)n3n2)c(C)n1CC1CCCO1 (centres undefined)	inconclusive: 92%
O=C(Nc1cccc2ccccc12)N1CCN(Cc2ccccc2)CC1	inconclusive: 95%
Cc1cc2ncn(CCC(=O)NC(C)(C)C)c2cc1C	inactive: 100%
COc1ccc(-c2csc(N3CCOCC3)n2)cc1OC	inconclusive: 95%
CN(C)c1ccc(C(CNS(=O)(=O)c2ccc3ccccc3c2)c2c[nH]c3ccccc23)cc1 (centres undefined)	inconclusive: 94%
Cc1cccnc1NC(=O)CSc1nnc(Cc2ccccc2)o1	inactive: 103%
Cc1nc(Nc2cccc(C(C)O)c2)c2nnn(Cc3ccccc3F)c2n1 (centres undefined)	inactive: 94%
CN1CCN(S(=O)(=O)c2cccc(C(=O)O)c2)CC1	inactive: 98%
CC(C)C(=O)N1C2CCC1CC(O)(c1ccc(F)cc1)C2 (centres undefined)	inconclusive: 94%
S=c1[nH]c2ccccc2o1	inactive: 98%
O=C(CNC(=O)c1ccccc1)Nc1cccc(C(F)(F)F)c1	inconclusive: 539%
Cc1c(N=Cc2ccc(-c3ccc(Cl)cc3)o2)c(=O)n(-c2ccccc2)n1C	inconclusive: 90%
COc1ccc(N2CCN(C(=O)CSc3nnc(NC(=O)C4CCC4)s3)CC2)cc1	inactive: 103%
Cc1cc(NC(=O)c2sccc2C)n(-c2nc3ccccc3[nH]2)n1	inconclusive: 94%
CC(Oc1ccc(Cl)cc1Cl)c1nc(-c2ccc(NC(=O)c3ccco3)cc2)no1 (centres undefined)	inconclusive: 106%
O=C1NCCCC1C(=O)Nc1ccccn1 (centres undefined)	inconclusive: 106%

SMILES	GTP binding activity (percent of control)
Cn1nc(C(F)(F)F)c(CO)c1Sc1ccc(F)cc1	inactive: 101%
CCOC(=O)c1ccc(N2CCN(c3ccccc3F)CC2)c(NC(=O)Nc2ccccc2)c1	inconclusive: 98%
COc1ccc(CN(C(=O)c2ccc(-c3ccccc3)[nH]2)C(C(=O)NCC2CCCO2)c2ccc(C)o2)cc1 (centres undefined)	inactive: 106%
CCCCN(CC)c1nc(N)c(C#N)c(CC#N)c1C#N	inconclusive: 94%
COc1ccc(CCNC(=O)C2CC(=O)N(c3ccc(Br)cc3)C2)cc1OC (centres undefined)	inconclusive: 95%
Cn1c(C(=O)N2CCN(C(=O)c3ccco3)CC2)cc2c(=O)n3ccccc3nc21	inconclusive: 91%
Cc1ccc(/C=N/NC(=O)Cn2ccc(C(F)(F)F)n2)o1	inactive: 105%
COc1cccc(NC(=O)CC2(CC(=O)O)CCCC2)c1	inconclusive: 91%
Oc1c(Br)cc(C=Nc2ccc3nc(-c4ccccc4)[nH]c3c2)c(O)c1Br	inconclusive: 91%
CCC(=O)NC(C)C(c1cccs1)N1CCN(c2ccccc2)CC1 (centres undefined)	inconclusive: 99%
Cc1cc(C)c(S(C)(=O)=O)c(NN)n1	inconclusive: 108%
Cc1nc2ccc(NC(=O)c3ccc4ccccc4n3)cc2s1	inconclusive: 94%
Cc1c(C(=O)Nc2ccccc2)cn2c(nc3ccccc32)c1C#N	inconclusive: 94%
CS(=O)(=O)Nc1cccc(C2=NN(S(=O)(=O)c3ccccc3)C(c3cccs3)C2)c1 (centres undefined)	inconclusive: 108%
O=C(NCc1ccco1)c1cccn2c(=O)c3c4c(sc3nc12)CCCC4	inconclusive: 80%
CCOc1cccc(NC(=O)C2CC(=O)N(C)C(=Nc3cccc(F)c3)S2)c1 (centres undefined)	inactive: 100%
O=C(Nc1nc2ccccc2n1CCN1CCCCC1)C1CCCCC1	inconclusive: 96%
CN(Cc1ccon1)C(=O)CC1C(=O)NCCN1CC(C)(C)C (centres undefined)	inactive: 106%
CCOc1ccccc1C1C(C(=O)OC)=C(N)OC2=C1C(=O)CCC2 (centres undefined)	inactive: 111%
O=C(c1ccco1)N1CCN(S(=O)(=O)c2ccccc2[N+](=O)[O-])CC1	inactive: 93%
CCNC(=O)CC1C(=O)N(c2ccc(F)cc2)C(=S)N1CCc1ccncc1 (centres undefined)	inconclusive: 107%
Cc1nc(Nc2ccc(C(=O)O)cc2)nc(Nc2ccc(C(=O)O)cc2)c1[N+](=O)[O-]	inactive: 84%
Cc1cc(C)nc(NS(=O)(=O)c2ccc(N/C=C\C(=O)c3ccc(Cl)cc3)cc2)n1	inconclusive: 98%
CN1CCN(C(=O)C2=C[C@H](c3csc4ccccc34)C[C@H](OCCCCO)O2)CC1	inactive: 95%

SMILES	GTP binding activity (percent of control)
CCN(CC)S(=O)(=O)c1ccc2oc(C(=O)N3CCc4ccccc4C3)c(C)c2c1	inactive: 109%
Cc1nn2c(-c3cccc(NC(=O)c4ccco4)c3)nnc2c2ccccc12	inconclusive: 85%
Cc1ccc(-n2nc3c([n+]2[O-])CCc2c-3no[n+]2[O-])cc1	inconclusive: 100%
Cc1cc(C)cc(N(C(C)C(=O)N2CCOCC2)S(C)(=O)=O)c1 (centres undefined)	inconclusive: 96%
COc1cc(Cl)cc(C(=O)O)c1OCC(=O)O	inactive: 94%
CCn1c(SCc2ccccc2)nc2c(c1=O)SCC2	inactive: 94%
O=C(CCc1nc2ccccc2c(=O)[nH]1)Nc1ccc(N2CCCCC2)cc1	inconclusive: 94%
Cc1ccc(Nc2nc(CSc3nnnn3-c3ccccc3)cs2)cc1	inconclusive: 90%
COc1ccc2cc(C(C)=O)c(=O)oc2c1	inconclusive: 103%
Cc1cccc(N2CCN(c3ccc(NC(=O)/C=C\C(=O)O)cc3)CC2)c1	inactive: 97%
Cc1nc2nc(SCC(=O)O)nn2c(C)c1Cc1c(F)cccc1Cl	inactive: 87%
CCOC(=O)CSc1nc2ccccc2n1CC(=O)N(C(C)C)C(C)C	inconclusive: 101%
Cc1ccc(NCc2nnc(SCC(=O)Nc3nnc(C)s3)n2C)cc1	inconclusive: 89%
COc1cc2nc(/C=C/c3cc(OC)c(OC)c(OC)c3)sc2cc1SC	inconclusive: 96%
CC1=CC(c2ccc(Cl)cc2)n2nc(NS(=O)(=O)c3ccc(C)cc3)nc2N1 (centres undefined)	inconclusive: 90%
O=S(=O)(Nc1ccc(Cl)nn1)c1ccccc1	inconclusive: 97%
N#CC1=C(N)N(c2ccccc2C#N)C2=C(C(=O)CCC2)C1c1ccsc1 (centres undefined)	inconclusive: 106%
COc1cc2nc(C3CCC3)n(NC(=O)COc3ccccc3)c(=O)c2cc1OC	inconclusive: 89%
O=C(Cn1cnnn1)Nc1cccc(S(=O)(=O)N2CCCCC2)c1	inconclusive: 131%
Cc1ccc(C)n1N1C(=O)/C(=C\c2ccc(Cl)cc2)SC1=S	inactive: 96%
COc1cc(OC)c(C(=O)OCC(=O)NCCc2ccccc2)cc1OC	inactive: 95%
COC(=O)c1c(NC(=O)C2C3C=CC(CC3)C2C(=O)O)sc(C)c1C (centres undefined)	inconclusive: 92%

Individual results from the entries so far:
`COc1ccc(N2CCN(C(=O)CSc3nnc(NC(=O)C4CCC4)s3)CC2)cc1` – GTP binding activity (percent of control): inactive: 103%
`Cc1nc2nc(SCC(=O)O)nn2c(C)c1Cc1c(F)cccc1Cl` – GTP binding activity (percent of control): inactive: 87%

Reference: PubChem BioAssay AID758 (NMMLSC, 2007)
